# Some of these results come from one statement about several compounds together. At least one compound was matched to its structure with a doubt left.
# Columns and labels:
# [1] = test system: Staphylococcus aureus ATCC49951; assay: MIC, Agar Dilution Test or Microdilution Test (CLSI M7-A7); type: cell-based; details: against Staphylococcus aureus ATCC49951
# [2] = test system: Streptococcus pneumoniae ATCC49619; assay: as above; type: cell-based; details: against Streptococcus pneumoniae ATCC49619
smiles,measurement,setting,value
"C=CC1(C)CC(OC(=O)CSC2CCC(N)CC2O)C2(C)C(C)CCC3(CCC(=O)C32)C(C)C1O.Cl (mixture of isomers) [Example 3, 14-O-{[(1R, 2R, 4S)-4-Amino-2-hydroxy-cyclohexylsulfanyl]-acetyl}-mutilin hydrochloride+(1S, 2S, 4R)diastereomer hydrochloride]",MICs,[1],≤ 2 µg/mL
same,MICs,[2],≤ 2 µg/mL

# Reference: patent US8153689B2, “Pleuromutilin derivatives for the treatment of diseases mediated by microbes” (Nabriva Therapeutics AG, priority 2007, dated 2012)
